For 1 molecule, binding results are on record in patent US20140105855A1.

No constants are given. Whether binding was seen depends on the method and setting. Binding calls can cover weak binding; strength is not graded here.

The target of this test is IL-17RA extracellular domain (ECD) (human). Description: gel filtration, co-elution. Background: Size exclusion chromatography separates by hydrodynamic size, large species first.

B1: IL-17F (ligand, human)
chain: RKIPKVGHTFFQKPESCPPVPGGSMKLDIGIINENQRVSMSRNIESRSTSPWNYTVTWDPNRYPSEVVQAQCRNLGCINAQGKEDISMNSVPIQQETLVVRRKHQGCSVSFQLEKVLVTVGCTCVTPVIHHVQHHHHHH
Consider B1, for which the binding entry is on record as “binds”.
